These are yes or no findings as the source states them, for the method shown. In cells and extracts the contact can be indirect. Some entries that bind do so weakly or less than the wild type.
Target: EGFP-IP3R1 (endogenous inositol 1,4,5-trisphosphate receptor type 1 tagged with monomeric EGFP by gene editing) (human) (UniProt Q14643)
Assay: co-IP; GFP-Trap (anti-GFP VHH) magnetic beads with lysate supernatant of EGFP-IP3R1 HeLa cells (1% Triton X-100 lysis medium), 2 h at 4 °C; washed in 150 mM NaCl, 0.5 mM EDTA, 10 mM Tris pH 7.5; Western blot

Protein sequences, listed by entry. Tags and fused reporters are not part of them. Lines headed by an entry give the natural chain unless they say otherwise; changes in a name come on top. Chains listed by the source or under a name are the forms on record and can include a tag or linker.
EGFP-IP3R1 (endogenous inositol 1,4,5-trisphosphate receptor type 1 tagged with monomeric EGFP by gene editing) (Q14643, form named): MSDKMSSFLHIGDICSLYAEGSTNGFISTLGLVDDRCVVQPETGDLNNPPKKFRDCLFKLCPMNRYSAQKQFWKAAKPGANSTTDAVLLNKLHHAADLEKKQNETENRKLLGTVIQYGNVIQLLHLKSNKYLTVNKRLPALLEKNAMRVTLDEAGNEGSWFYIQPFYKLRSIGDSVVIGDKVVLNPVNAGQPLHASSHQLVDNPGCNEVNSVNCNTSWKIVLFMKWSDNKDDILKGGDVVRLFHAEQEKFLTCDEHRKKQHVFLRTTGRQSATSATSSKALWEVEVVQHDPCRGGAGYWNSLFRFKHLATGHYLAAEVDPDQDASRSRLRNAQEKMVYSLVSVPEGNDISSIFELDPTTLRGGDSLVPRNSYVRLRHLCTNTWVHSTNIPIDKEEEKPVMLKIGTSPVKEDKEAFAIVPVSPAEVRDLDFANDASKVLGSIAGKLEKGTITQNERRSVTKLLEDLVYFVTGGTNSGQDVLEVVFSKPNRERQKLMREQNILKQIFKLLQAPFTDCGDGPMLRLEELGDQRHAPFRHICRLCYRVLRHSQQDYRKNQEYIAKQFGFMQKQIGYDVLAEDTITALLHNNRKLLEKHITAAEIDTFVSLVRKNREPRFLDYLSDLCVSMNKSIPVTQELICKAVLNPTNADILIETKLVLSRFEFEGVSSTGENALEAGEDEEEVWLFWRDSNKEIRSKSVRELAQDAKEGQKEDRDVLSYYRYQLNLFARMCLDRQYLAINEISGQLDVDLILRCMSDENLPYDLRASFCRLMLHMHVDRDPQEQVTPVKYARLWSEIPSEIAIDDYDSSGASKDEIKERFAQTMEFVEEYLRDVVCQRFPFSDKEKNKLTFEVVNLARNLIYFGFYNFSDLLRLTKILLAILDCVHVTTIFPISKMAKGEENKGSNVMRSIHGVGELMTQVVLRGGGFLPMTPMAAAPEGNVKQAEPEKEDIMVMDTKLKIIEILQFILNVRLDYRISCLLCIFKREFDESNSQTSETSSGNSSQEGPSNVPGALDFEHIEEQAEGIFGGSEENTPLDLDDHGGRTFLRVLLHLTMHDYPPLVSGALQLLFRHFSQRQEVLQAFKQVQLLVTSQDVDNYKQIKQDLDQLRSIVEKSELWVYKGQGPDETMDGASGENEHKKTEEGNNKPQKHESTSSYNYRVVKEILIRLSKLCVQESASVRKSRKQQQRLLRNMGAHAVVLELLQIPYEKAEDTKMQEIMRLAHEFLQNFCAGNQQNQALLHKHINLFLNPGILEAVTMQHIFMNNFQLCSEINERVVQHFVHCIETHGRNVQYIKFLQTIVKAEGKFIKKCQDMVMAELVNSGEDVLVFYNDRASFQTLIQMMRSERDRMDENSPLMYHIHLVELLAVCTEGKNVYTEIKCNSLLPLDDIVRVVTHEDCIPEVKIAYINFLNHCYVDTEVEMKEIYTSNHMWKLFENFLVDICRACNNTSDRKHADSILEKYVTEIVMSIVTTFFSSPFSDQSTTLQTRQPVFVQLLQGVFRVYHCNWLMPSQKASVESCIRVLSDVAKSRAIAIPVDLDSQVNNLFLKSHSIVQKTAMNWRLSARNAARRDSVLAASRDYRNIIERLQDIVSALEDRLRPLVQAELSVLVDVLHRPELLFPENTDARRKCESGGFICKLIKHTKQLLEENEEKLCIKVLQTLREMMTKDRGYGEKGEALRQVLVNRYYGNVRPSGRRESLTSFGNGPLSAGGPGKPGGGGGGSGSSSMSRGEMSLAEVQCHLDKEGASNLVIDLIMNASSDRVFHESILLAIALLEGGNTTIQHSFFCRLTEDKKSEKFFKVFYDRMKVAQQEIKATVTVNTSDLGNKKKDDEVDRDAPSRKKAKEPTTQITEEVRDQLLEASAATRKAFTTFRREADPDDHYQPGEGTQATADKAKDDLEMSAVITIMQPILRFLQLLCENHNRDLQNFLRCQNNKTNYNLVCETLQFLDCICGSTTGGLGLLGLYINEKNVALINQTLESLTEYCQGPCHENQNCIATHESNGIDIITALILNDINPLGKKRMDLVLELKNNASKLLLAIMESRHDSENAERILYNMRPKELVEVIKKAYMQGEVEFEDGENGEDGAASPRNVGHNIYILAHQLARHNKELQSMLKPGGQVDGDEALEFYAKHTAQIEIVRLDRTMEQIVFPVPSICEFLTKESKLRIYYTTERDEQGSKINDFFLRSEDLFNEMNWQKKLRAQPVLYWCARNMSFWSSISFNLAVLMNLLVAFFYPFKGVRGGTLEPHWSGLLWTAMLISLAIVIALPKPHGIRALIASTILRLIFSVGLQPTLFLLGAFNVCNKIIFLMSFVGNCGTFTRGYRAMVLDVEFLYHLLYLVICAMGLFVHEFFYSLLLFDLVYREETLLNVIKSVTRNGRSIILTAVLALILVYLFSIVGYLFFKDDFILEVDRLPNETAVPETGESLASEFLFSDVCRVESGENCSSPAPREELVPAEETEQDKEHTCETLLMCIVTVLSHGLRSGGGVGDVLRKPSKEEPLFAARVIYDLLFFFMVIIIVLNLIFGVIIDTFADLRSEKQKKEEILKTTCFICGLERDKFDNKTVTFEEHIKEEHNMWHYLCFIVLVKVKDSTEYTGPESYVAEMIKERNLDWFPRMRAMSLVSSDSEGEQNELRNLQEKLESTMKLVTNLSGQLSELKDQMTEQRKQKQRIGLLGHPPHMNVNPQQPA
UniProt Q14571: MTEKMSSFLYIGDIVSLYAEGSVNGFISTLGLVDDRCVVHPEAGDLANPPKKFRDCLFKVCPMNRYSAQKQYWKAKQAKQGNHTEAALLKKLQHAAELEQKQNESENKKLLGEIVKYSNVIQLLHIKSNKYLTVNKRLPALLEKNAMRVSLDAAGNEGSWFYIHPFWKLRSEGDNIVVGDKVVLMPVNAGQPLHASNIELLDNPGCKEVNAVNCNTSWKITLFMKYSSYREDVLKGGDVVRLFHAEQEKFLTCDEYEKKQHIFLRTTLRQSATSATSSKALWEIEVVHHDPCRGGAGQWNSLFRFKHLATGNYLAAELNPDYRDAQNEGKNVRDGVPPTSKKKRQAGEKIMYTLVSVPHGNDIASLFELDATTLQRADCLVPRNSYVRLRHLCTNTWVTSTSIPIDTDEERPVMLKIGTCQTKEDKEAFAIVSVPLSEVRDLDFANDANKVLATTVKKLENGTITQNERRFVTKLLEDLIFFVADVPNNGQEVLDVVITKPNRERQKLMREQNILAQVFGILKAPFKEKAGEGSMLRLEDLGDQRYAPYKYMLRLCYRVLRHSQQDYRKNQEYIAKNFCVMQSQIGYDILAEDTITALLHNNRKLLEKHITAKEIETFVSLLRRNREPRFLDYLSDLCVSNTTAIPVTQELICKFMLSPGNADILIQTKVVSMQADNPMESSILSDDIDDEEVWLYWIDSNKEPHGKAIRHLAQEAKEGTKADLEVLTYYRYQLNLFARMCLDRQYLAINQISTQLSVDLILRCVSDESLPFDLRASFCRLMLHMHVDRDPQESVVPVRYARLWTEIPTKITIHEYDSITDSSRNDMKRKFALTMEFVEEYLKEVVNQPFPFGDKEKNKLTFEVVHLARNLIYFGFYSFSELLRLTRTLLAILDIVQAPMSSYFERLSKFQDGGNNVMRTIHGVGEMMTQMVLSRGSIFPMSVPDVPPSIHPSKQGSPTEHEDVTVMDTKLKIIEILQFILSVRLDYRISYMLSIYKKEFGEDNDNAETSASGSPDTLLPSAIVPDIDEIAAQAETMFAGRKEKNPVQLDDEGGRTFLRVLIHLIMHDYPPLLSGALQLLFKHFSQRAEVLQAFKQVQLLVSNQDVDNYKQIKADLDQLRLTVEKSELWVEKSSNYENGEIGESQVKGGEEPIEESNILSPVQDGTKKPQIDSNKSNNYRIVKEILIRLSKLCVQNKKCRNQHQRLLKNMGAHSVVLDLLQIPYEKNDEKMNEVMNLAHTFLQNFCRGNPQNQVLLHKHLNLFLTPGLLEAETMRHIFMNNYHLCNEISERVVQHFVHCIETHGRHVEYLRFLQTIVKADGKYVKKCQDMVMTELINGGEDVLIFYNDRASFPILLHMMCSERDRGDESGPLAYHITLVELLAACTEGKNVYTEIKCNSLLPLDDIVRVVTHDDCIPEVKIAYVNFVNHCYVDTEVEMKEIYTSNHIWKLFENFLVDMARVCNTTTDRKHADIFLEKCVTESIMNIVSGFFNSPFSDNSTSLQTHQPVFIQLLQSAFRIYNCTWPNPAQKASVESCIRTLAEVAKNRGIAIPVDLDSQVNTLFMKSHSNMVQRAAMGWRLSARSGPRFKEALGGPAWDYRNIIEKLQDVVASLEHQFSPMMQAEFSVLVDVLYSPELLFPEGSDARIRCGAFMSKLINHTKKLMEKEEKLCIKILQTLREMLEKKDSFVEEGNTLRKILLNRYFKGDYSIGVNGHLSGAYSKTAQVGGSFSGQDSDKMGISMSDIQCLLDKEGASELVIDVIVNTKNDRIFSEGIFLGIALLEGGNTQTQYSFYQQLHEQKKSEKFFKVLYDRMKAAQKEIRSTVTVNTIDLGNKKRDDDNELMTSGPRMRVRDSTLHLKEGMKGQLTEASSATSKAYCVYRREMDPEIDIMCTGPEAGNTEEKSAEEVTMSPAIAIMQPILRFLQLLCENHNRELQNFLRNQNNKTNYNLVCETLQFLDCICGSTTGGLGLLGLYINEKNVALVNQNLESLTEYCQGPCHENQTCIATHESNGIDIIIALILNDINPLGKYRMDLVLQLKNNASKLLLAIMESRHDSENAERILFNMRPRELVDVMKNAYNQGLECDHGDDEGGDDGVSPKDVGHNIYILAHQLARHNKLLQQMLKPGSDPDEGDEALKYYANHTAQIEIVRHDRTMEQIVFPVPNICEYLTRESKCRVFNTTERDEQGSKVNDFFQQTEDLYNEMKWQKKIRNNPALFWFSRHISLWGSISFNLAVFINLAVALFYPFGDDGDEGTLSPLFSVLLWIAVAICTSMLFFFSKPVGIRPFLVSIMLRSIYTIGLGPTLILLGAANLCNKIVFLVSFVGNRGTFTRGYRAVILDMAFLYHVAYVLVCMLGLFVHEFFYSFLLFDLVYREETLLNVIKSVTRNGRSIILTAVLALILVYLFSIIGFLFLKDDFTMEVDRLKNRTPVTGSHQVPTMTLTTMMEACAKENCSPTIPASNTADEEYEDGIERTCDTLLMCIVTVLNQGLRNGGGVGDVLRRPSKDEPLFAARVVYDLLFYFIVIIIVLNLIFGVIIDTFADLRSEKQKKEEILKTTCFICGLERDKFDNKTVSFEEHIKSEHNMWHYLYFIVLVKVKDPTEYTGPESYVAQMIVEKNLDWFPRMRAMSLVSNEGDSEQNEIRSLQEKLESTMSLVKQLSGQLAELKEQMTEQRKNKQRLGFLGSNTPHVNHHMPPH

Row | Substance | binding
1 | IP3R2 (endogenous inositol 1,4,5-trisphosphate receptor type 2) (from UniProt Q14571 1-2701) | binds
2 | IP3R3 (endogenous inositol 1,4,5-trisphosphate receptor type 3) (from UniProt Q14573 1-2671) | binds
